Test results as given in publication PMC7819943, “Rice protein-binding microarrays: a tool to detect cis-acting elements near promoter regions in rice”.
This is one part of the list.

Protein sequences, listed by entry. Tags and fused reporters are not part of them.
UniProt Q0JBA9, entry or part of it: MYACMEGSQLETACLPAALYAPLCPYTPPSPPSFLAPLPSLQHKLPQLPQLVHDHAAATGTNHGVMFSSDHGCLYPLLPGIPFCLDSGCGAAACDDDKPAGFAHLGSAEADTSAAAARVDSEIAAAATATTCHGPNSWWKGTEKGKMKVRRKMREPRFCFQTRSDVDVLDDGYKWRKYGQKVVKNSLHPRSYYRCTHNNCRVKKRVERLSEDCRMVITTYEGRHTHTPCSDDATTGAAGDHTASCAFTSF

Target: OsWRKY34 (Oryza sativa, UniProt Q0JBA9 1-250)
Assay: protein-binding microarray (RPBM); PBS, 2% BSA, 51.3 ng/ul salmon testes DNA, 50 uM zinc acetate, 200 nM TF, 25 C, 1 h; high values mean tight binding
Details: protein: recombinant; tags: N-terminal polyhistidine and DsRed monomer fusion (pET32a); label: CyDye5-dUTP incorporated in the synthesized complementary strand; 3' TTTTT single-stranded linker to array surface; dsDNA, one strand shown
Method in brief: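 Using Ni–NTA, transcription factors fused N-terminally to polyhistidine and DsRed were purified after expression in E. coli BL21-CodonPlus. These were incubated at 200 nM with a blocked, double-stranded custom Agilent array for 1 h at 25 °C in a buffer containing 50 µM zinc acetate, and the array was washed. The binding signal is per-feature fluorescence intensity (arbitrary units) on an Axon 4000B scanner.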

Sequence | binding signal
CTCATTTGACTTCATTGCTAGCGTGCGTCCATATTCTATACGGAGTCACCTAGTGCAG | 9490 fluorescence intensity (a.u.)
CGCGCGCGCGCGGAGTTCTCTCTCTCTCCTGTTGACCACCCGGAGTCACCTAGTGCAG | 8130 fluorescence intensity (a.u.)
CACCTCTGCTTCCCCGGCGATGTCTCTGCTTTGCGCTCCGCGGAGTCACCTAGTGCAG | 9880 fluorescence intensity (a.u.)
CTCACCTTAATCCAGTTTTCTTTTGCCAATTTTTAGCTCACGGAGTCACCTAGTGCAG | 8400 fluorescence intensity (a.u.)
CCCTGAGGTTCTAGTTTACATTCGAAGTTACTTCCATTTCCGGAGTCACCTAGTGCAG | 8730 fluorescence intensity (a.u.)
CCCGCCGCGATCCGGTCGCCGCCTCCACCACCACGCCGCGCGGAGTCACCTAGTGCAG | 8740 fluorescence intensity (a.u.)
CCGTCGCCGGTTTCTCTTCTATCCACCGCCTCTCGCCGCCCGGAGTCACCTAGTGCAG | 12400 fluorescence intensity (a.u.)
CTCGTTTCCATTATTTATACTTGATTCTTCACTCCTTTTGCGGAGTCACCTAGTGCAG | 11300 fluorescence intensity (a.u.)
CTTTCGATCATCCGCTTTTCTTTTTTTTATCATAATATAGCGGAGTCACCTAGTGCAG | 8500 fluorescence intensity (a.u.)
ATATGCTTTCTGGAATTCTGGTGGCCCTAACTCCACTCCTCGGAGTCACCTAGTGCAG | 10400 fluorescence intensity (a.u.)
CACACCTTTGCATCATTGCTGCCCTACTTTCTTCAGTAGTCGGAGTCACCTAGTGCAG | 9690 fluorescence intensity (a.u.)
CCTCGCCCAGCTGTGCCCGTCGCCGCTCGCCACCGACCAGCGGAGTCACCTAGTGCAG | 9200 fluorescence intensity (a.u.)
ATACACGCAATTCCGCAAATAGACACCCCAGCACACGATACGGAGTCACCTAGTGCAG | 8790 fluorescence intensity (a.u.)
GTCTTATACTTATTGTTGCTTGTCCTACTTTATTTTATTTCGGAGTCACCTAGTGCAG | 15100 fluorescence intensity (a.u.)
ATGGATGGGGATTCATTTGTTTGGTGAGTAGTGGTCGGGTCGGAGTCACCTAGTGCAG | 9800 fluorescence intensity (a.u.)
CCCGTGCGTCGCCGCCGCCGACTGCTGCCGATTGACTGCTCGGAGTCACCTAGTGCAG | 8320 fluorescence intensity (a.u.)
TCAGCATCCTCGACGCACAGGCGCAGCGTACGTCTCATGCCGGAGTCACCTAGTGCAG | 8500 fluorescence intensity (a.u.)
AAAAAAATTGTCACTGTAGTATAGATTCACGGCGATTTGCCGGAGTCACCTAGTGCAG | 8800 fluorescence intensity (a.u.)
TCCCACACGTTTCTCTCGCGCGGTTGCCACTTGCGATCGCCGGAGTCACCTAGTGCAG | 13300 fluorescence intensity (a.u.)
GGATAAGCTCCATGGTCACATATTTAGCTGTTATCTTCCTCGGAGTCACCTAGTGCAG | 8440 fluorescence intensity (a.u.)
CACATAAACTCCTAACTTTTTTTCCAAACTATCAAATTTCCGGAGTCACCTAGTGCAG | 8750 fluorescence intensity (a.u.)
ATTATACACATTTTTTTTTCATATTTTGGAAAATACATATCGGAGTCACCTAGTGCAG | 10500 fluorescence intensity (a.u.)
TCACACGCTACCTTCTTTTTTTTAGAGAAGGGTATTTTTTCGGAGTCACCTAGTGCAG | 8610 fluorescence intensity (a.u.)

Look-ups from the list:
Under binding signal, CACATAAACTCCTAACTTTTTTTCCAAACTATCAAATTTCCGGAGTCACCTAGTGCAG has the entry 8750 fluorescence intensity (a.u.)
Under binding signal, CTCACCTTAATCCAGTTTTCTTTTGCCAATTTTTAGCTCACGGAGTCACCTAGTGCAG has the entry 8400 fluorescence intensity (a.u.)
